# Laboratory results as given in the supplement of paper PMC8728848.
# The other results are listed elsewhere or left out.
# What was measured:
# Assay in all cases: glycan array binding signal (z-score within array); higher = stronger binding
# Settings in all cases: glycan notation: IUPAC condensed, linker removed
# [1] = target: GlcNAc(a1-4)Gal(b1-3)GlcNAc
# Outline: (§1)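 Glycan array data came from 3228 arrays in the Consortium for Functional Glycomics database, and only arrays with an available protein sequence were kept. Glycan names were put into IUPAC-condensed notation, and columns mapping to the same glycan were averaged. The binding signal is a within-array Z-score, averaged across arrays of one protein sequence run at different concentrations or buffers and across linkers. A negative Z-score can be read as non-binding.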
# [2] = target: GlcNAc(a1-4)Gal(b1-4)GalNAc
# Outline: as §1
# [3] = target: GlcNAc(a1-4)Gal(b1-4)GlcNAc
# Outline: as §1
# [4] = target: GlcNAc(a1-4)Gal(b1-4)GlcNAc(b1-3)Gal(b1-4)Glc
# Outline: as §1
# [5] = target: GlcNAc(a1-4)Gal(b1-4)GlcNAc(b1-3)Gal(b1-4)GlcNAc
# Outline: as §1
# [6] = target: GlcNAc(a1-4)Gal(b1-4)GlcNAc(b1-3)Gal(b1-4)GlcNAc(b1-3)Gal(b1-4)GlcNAc
# Outline: as §1
# [7] = target: GlcNAc(a1-4)Gal(b1-4)GlcNAc(b1-3)Gal(b1-4)[Fuc(a1-3)]GlcNAc(b1-3)Gal(b1-4)[Fuc(a1-3)]GlcNAc
# Outline: as §1
# [8] = target: GlcNAc(a1-6)Gal(b1-4)GlcNAc
# Outline: as §1
# [9] = target: GlcNAc(b1-2)Gal(b1-3)GalNAc
# Outline: as §1
# [10] = target: GlcNAc(b1-2)Man(a1-3)[GlcNAc(b1-2)Man(a1-6)]Man(b1-4)GlcNAc(b1-4)GlcNAc
# Outline: as §1
# [11] = target: GlcNAc(b1-2)Man(a1-3)[GlcNAc(b1-2)Man(a1-6)]Man(b1-4)GlcNAc(b1-4)[Fuc(a1-6)]GlcNAc
# Outline: as §1
# [12] = target: GlcNAc(b1-2)Man(a1-3)[GlcNAc(b1-4)][GlcNAc(b1-2)Man(a1-6)]Man(b1-4)GlcNAc(b1-4)GlcNAc
# Outline: as §1
# [13] = target: GlcNAc(b1-2)Man(a1-3)[GlcNAc(b1-4)][GlcNAc(b1-2)Man(a1-6)]Man(b1-4)GlcNAc(b1-4)[Fuc(a1-6)]GlcNAc
# Outline: as §1
# [14] = target: GlcNAc(b1-2)[GlcNAc(b1-4)]Man(a1-3)[GlcNAc(b1-2)Man(a1-6)]Man(b1-4)GlcNAc(b1-4)GlcNAc
# Outline: as §1
# [15] = target: GlcNAc(b1-2)[GlcNAc(b1-4)]Man(a1-3)[GlcNAc(b1-4)][GlcNAc(b1-2)Man(a1-6)]Man(b1-4)GlcNAc(b1-4)GlcNAc
# Outline: as §1
# [16] = target: GlcNAc(b1-2)[GlcNAc(b1-4)]Man(a1-3)[GlcNAc(b1-4)][GlcNAc(b1-2)[GlcNAc(b1-6)]Man(a1-6)]Man(b1-4)GlcNAc(b1-4)GlcNAc
# Outline: as §1
# [17] = target: GlcNAc(b1-2)[GlcNAc(b1-4)]Man(a1-3)[GlcNAc(b1-4)][GlcNAc(b1-2)[GlcNAc(b1-6)]Man(a1-6)]Man(b1-4)GlcNAc(b1-4)[Fuc(a1-6)]GlcNAc
# Outline: as §1
# [18] = target: GlcNAc(b1-2)[GlcNAc(b1-6)]Man(a1-6)[GlcNAc(b1-2)Man(a1-3)]Man(b1-4)GlcNAc(b1-4)GlcNAc
# Outline: as §1
# [19] = target: GlcNAc(b1-2)[GlcNAc(b1-6)]Man(a1-6)[GlcNAc(b1-2)Man(a1-3)]Man(b1-4)GlcNAc(b1-4)[Fuc(a1-6)]GlcNAc
# Outline: as §1
# [20] = target: GlcNAc(b1-2)[GlcNAc(b1-6)]Man(a1-6)[GlcNAc(b1-4)][GlcNAc(b1-2)Man(a1-3)]Man(b1-4)GlcNAc(b1-4)GlcNAc
# Outline: as §1
# GlcNAc(b1-3)Fuc = target: GlcNAc(b1-3)Fuc
# Outline: as §1
# GlcNAc(b1-3)Gal = target: GlcNAc(b1-3)Gal
# Outline: as §1
# [21] = target: GlcNAc(b1-3)Gal(b1-3)GalNAc
# Outline: as §1
# GlcNAc(b1-3)Gal(b1-4)Glc = target: GlcNAc(b1-3)Gal(b1-4)Glc
# Outline: as §1
# [22] = target: GlcNAc(b1-3)Gal(b1-4)GlcNAc
# Outline: as §1
# [23] = target: GlcNAc(b1-3)Gal(b1-4)GlcNAc(b1-2)Man(a1-3)[GlcNAc(b1-3)Gal(b1-4)GlcNAc(b1-2)Man(a1-6)]Man(b1-4)GlcNAc(b1-4)GlcNAc
# Outline: as §1
# [24] = target: GlcNAc(b1-3)Gal(b1-4)GlcNAc(b1-2)Man(a1-3)[GlcNAc(b1-3)Gal(b1-4)GlcNAc(b1-2)Man(a1-6)]Man(b1-4)GlcNAc(b1-4)[Fuc(a1-6)]GlcNAc
# Outline: as §1
# [25] = target: GlcNAc(b1-3)Gal(b1-4)GlcNAc(b1-2)[GlcNAc(b1-3)Gal(b1-4)GlcNAc(b1-6)]Man(a1-6)[GlcNAc(b1-3)Gal(b1-4)GlcNAc(b1-2)Man(a1-3)]Man(b1-4)GlcNAc(b1-4)GlcNAc
# Outline: as §1
# [26] = target: GlcNAc(b1-3)Gal(b1-4)GlcNAc(b1-3)Gal(b1-4)GlcNAc
# Outline: as §1
# [27] = target: GlcNAc(b1-3)Gal(b1-4)GlcNAc(b1-3)Gal(b1-4)GlcNAc(b1-2)Man(a1-3)[GlcNAc(b1-3)Gal(b1-4)GlcNAc(b1-3)Gal(b1-4)GlcNAc(b1-2)Man(a1-6)]Man(b1-4)GlcNAc(b1-4)GlcNAc
# Outline: as §1
# [28] = target: GlcNAc(b1-3)Gal(b1-4)GlcNAc(b1-3)Gal(b1-4)GlcNAc(b1-2)Man(a1-3)[GlcNAc(b1-3)Gal(b1-4)GlcNAc(b1-3)Gal(b1-4)GlcNAc(b1-2)Man(a1-6)]Man(b1-4)GlcNAc(b1-4)[Fuc(a1-6)]GlcNAc
# Outline: as §1
# [29] = target: GlcNAc(b1-3)Gal(b1-4)GlcNAc(b1-3)Gal(b1-4)GlcNAc(b1-2)[GlcNAc(b1-3)Gal(b1-4)GlcNAc(b1-3)Gal(b1-4)GlcNAc(b1-6)]Man(a1-6)[GlcNAc(b1-3)Gal(b1-4)GlcNAc(b1-3)Gal(b1-4)GlcNAc(b1-2)Man(a1-3)]Man(b1-4)GlcNAc(b1-4)[Fuc(a1-6)]GlcNAc
# Outline: as §1
# [30] = target: GlcNAc(b1-3)Gal(b1-4)GlcNAc(b1-3)Gal(b1-4)GlcNAc(b1-3)Gal(b1-4)GlcNAc(b1-2)Man(a1-3)[GlcNAc(b1-3)Gal(b1-4)GlcNAc(b1-3)Gal(b1-4)GlcNAc(b1-3)Gal(b1-4)GlcNAc(b1-2)Man(a1-6)]Man(b1-4)GlcNAc(b1-4)GlcNAc
# Outline: as §1
# [31] = target: GlcNAc(b1-3)Gal(b1-4)GlcNAc(b1-3)Gal(b1-4)GlcNAc(b1-3)Gal(b1-4)GlcNAc(b1-2)Man(a1-3)[GlcNAc(b1-3)Gal(b1-4)GlcNAc(b1-3)Gal(b1-4)GlcNAc(b1-3)Gal(b1-4)GlcNAc(b1-2)Man(a1-6)]Man(b1-4)GlcNAc(b1-4)[Fuc(a1-6)]GlcNAc
# Outline: as §1
# [32] = target: GlcNAc(b1-3)Gal(b1-4)GlcNAc(b1-3)Gal(b1-4)GlcNAc(b1-3)Gal(b1-4)GlcNAc(b1-2)[GlcNAc(b1-3)Gal(b1-4)GlcNAc(b1-3)Gal(b1-4)GlcNAc(b1-3)Gal(b1-4)GlcNAc(b1-6)]Man(a1-6)[GlcNAc(b1-3)Gal(b1-4)GlcNAc(b1-3)Gal(b1-4)GlcNAc(b1-3)Gal(b1-4)GlcNAc(b1-2)Man(a1-3)]Man(b1-4)GlcNAc(b1-4)[Fuc(a1-6)]GlcNAc
# Outline: as §1
# [33] = target: GlcNAc(b1-3)Gal(b1-4)GlcNAc(b1-3)Gal(b1-4)GlcNAc(b1-3)Gal(b1-4)GlcNAc(b1-3)Gal(b1-4)GlcNAc(b1-2)Man(a1-3)[GlcNAc(b1-3)Gal(b1-4)GlcNAc(b1-3)Gal(b1-4)GlcNAc(b1-3)Gal(b1-4)GlcNAc(b1-3)Gal(b1-4)GlcNAc(b1-2)Man(a1-6)]Man(b1-4)GlcNAc(b1-4)GlcNAc
# Outline: as §1
# [34] = target: GlcNAc(b1-3)Gal(b1-4)GlcNAc(b1-3)Gal(b1-4)GlcNAc(b1-3)Gal(b1-4)GlcNAc(b1-3)Gal(b1-4)GlcNAc(b1-2)Man(a1-3)[GlcNAc(b1-3)Gal(b1-4)GlcNAc(b1-3)Gal(b1-4)GlcNAc(b1-3)Gal(b1-4)GlcNAc(b1-3)Gal(b1-4)GlcNAc(b1-2)Man(a1-6)]Man(b1-4)GlcNAc(b1-4)[Fuc(a1-6)]GlcNAc
# Outline: as §1
# [35] = target: GlcNAc(b1-3)Gal(b1-4)GlcNAc(b1-3)Gal(b1-4)GlcNAc(b1-3)Gal(b1-4)GlcNAc(b1-3)Gal(b1-4)GlcNAc(b1-2)[GlcNAc(b1-3)Gal(b1-4)GlcNAc(b1-3)Gal(b1-4)GlcNAc(b1-3)Gal(b1-4)GlcNAc(b1-3)Gal(b1-4)GlcNAc(b1-6)]Man(a1-6)[GlcNAc(b1-3)Gal(b1-4)GlcNAc(b1-3)Gal(b1-4)GlcNAc(b1-3)Gal(b1-4)GlcNAc(b1-3)Gal(b1-4)GlcNAc(b1-2)Man(a1-3)]Man(b1-4)GlcNAc(b1-4)[Fuc(a1-6)]GlcNAc
# Outline: as §1
binder,measurement,setting,value
PX9916F-bfa-443-24-443 (Bacteroides fragilis) (protein) DIRPVGSVIPQTAEEYRALLARAYLNVPNDRGLACLRSDEMLVNDNEYDRNSYGDIERWNDVSPFPGTSQFTWSNFYNVLFIANQVIESQKEITEGTPEVVNQLVGEAHLLRAYLHFVLVNLHGQPYTKSGALNSKSIPLKLDTDLEKTLGRNTVEEVYTSILSDIEHARELINKEKWETVFSYRFNVLSVDALQSRVSLYMGAWPKCLESAEAVLAKKSVLVDMNETPLALPNHFESVESITALEQVMGSSVNNAVWVPATFLALYQEGDKRLAAYFAAPDENGNRKSSKGGKREFSCTFRVGELYLNAAEAAANMDKLPHARMRLLELMRKRYTPEAYDKKENAVNVMDKNALISEILNERARELAFEGHRWFDLRRTTRPRMVKVLQGKTYILEQDDPRYTIPIPRDAIAANPGLAN,glycan array binding signal (z-score),[1],-0.212
same,glycan array binding signal (z-score),[2],1.35
same,glycan array binding signal (z-score),[3],-0.288
same,glycan array binding signal (z-score),[4],-0.689
same,glycan array binding signal (z-score),[5],-1.01
same,glycan array binding signal (z-score),[6],-0.314
same,glycan array binding signal (z-score),[7],0.015
same,glycan array binding signal (z-score),[8],0.214
same,glycan array binding signal (z-score),[9],0.007
same,glycan array binding signal (z-score),[10],-0.266
same,glycan array binding signal (z-score),[11],-0.516
same,glycan array binding signal (z-score),[12],-0.986
same,glycan array binding signal (z-score),[13],-0.859
same,glycan array binding signal (z-score),[14],-0.964
same,glycan array binding signal (z-score),[15],-0.856
same,glycan array binding signal (z-score),[16],-0.259
same,glycan array binding signal (z-score),[17],-1.61
same,glycan array binding signal (z-score),[18],-0.631
same,glycan array binding signal (z-score),[19],-0.383
same,glycan array binding signal (z-score),[20],-0.737
same,glycan array binding signal (z-score),GlcNAc(b1-3)Fuc,-0.15
same,glycan array binding signal (z-score),GlcNAc(b1-3)Gal,-1.16
same,glycan array binding signal (z-score),[21],0.202
same,glycan array binding signal (z-score),GlcNAc(b1-3)Gal(b1-4)Glc,-0.475
same,glycan array binding signal (z-score),[22],-0.213
same,glycan array binding signal (z-score),[23],0.169
same,glycan array binding signal (z-score),[24],0.76
same,glycan array binding signal (z-score),[25],-0.234
same,glycan array binding signal (z-score),[26],1.17
same,glycan array binding signal (z-score),[27],2.18
same,glycan array binding signal (z-score),[28],-0.097
same,glycan array binding signal (z-score),[29],-0.316
same,glycan array binding signal (z-score),[30],2.55
same,glycan array binding signal (z-score),[31],0.69
same,glycan array binding signal (z-score),[32],-0.424
same,glycan array binding signal (z-score),[33],-0.292
same,glycan array binding signal (z-score),[34],-0.064
same,glycan array binding signal (z-score),[35],1.38

# Retrieved one by one from above:
binder,measurement,setting,value
PX9916F-bfa-443-24-443 (Bacteroides fragilis) (protein) DIRPVGSVIPQTAEEYRALLARAYLNVPNDRGLACLRSDEMLVNDNEYDRNSYGDIERWNDVSPFPGTSQFTWSNFYNVLFIANQVIESQKEITEGTPEVVNQLVGEAHLLRAYLHFVLVNLHGQPYTKSGALNSKSIPLKLDTDLEKTLGRNTVEEVYTSILSDIEHARELINKEKWETVFSYRFNVLSVDALQSRVSLYMGAWPKCLESAEAVLAKKSVLVDMNETPLALPNHFESVESITALEQVMGSSVNNAVWVPATFLALYQEGDKRLAAYFAAPDENGNRKSSKGGKREFSCTFRVGELYLNAAEAAANMDKLPHARMRLLELMRKRYTPEAYDKKENAVNVMDKNALISEILNERARELAFEGHRWFDLRRTTRPRMVKVLQGKTYILEQDDPRYTIPIPRDAIAANPGLAN,glycan array binding signal (z-score),GlcNAc(b1-3)Gal(b1-4)Glc,-0.475
same,glycan array binding signal (z-score),[20],-0.737
